Screening data, single-dose tests

Chains of the proteins cited; added tags and fusions are not shown. Residues count along the entry.
UniProt P9WPC5, whole entry: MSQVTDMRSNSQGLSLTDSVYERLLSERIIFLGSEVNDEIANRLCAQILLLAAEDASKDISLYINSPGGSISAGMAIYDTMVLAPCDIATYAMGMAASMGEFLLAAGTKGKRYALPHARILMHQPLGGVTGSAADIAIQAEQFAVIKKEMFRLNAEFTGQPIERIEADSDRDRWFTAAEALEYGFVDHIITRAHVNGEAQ
UniProt P9WPC3, whole entry partner: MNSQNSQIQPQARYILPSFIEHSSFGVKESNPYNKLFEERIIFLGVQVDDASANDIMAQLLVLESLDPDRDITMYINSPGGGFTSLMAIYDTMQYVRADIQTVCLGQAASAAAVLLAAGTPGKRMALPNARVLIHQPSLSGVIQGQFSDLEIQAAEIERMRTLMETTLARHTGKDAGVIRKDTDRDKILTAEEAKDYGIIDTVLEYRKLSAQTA
UniProt P9WFT3, whole entry: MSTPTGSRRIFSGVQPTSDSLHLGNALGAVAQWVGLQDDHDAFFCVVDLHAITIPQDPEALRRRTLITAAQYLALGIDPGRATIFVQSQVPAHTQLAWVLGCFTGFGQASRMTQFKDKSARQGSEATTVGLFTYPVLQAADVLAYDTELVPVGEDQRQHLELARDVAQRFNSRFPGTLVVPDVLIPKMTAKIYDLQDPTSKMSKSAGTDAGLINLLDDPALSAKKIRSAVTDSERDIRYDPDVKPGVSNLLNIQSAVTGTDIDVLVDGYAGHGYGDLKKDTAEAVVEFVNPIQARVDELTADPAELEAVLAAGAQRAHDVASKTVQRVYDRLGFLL
UniProt I6X8D2, whole entry: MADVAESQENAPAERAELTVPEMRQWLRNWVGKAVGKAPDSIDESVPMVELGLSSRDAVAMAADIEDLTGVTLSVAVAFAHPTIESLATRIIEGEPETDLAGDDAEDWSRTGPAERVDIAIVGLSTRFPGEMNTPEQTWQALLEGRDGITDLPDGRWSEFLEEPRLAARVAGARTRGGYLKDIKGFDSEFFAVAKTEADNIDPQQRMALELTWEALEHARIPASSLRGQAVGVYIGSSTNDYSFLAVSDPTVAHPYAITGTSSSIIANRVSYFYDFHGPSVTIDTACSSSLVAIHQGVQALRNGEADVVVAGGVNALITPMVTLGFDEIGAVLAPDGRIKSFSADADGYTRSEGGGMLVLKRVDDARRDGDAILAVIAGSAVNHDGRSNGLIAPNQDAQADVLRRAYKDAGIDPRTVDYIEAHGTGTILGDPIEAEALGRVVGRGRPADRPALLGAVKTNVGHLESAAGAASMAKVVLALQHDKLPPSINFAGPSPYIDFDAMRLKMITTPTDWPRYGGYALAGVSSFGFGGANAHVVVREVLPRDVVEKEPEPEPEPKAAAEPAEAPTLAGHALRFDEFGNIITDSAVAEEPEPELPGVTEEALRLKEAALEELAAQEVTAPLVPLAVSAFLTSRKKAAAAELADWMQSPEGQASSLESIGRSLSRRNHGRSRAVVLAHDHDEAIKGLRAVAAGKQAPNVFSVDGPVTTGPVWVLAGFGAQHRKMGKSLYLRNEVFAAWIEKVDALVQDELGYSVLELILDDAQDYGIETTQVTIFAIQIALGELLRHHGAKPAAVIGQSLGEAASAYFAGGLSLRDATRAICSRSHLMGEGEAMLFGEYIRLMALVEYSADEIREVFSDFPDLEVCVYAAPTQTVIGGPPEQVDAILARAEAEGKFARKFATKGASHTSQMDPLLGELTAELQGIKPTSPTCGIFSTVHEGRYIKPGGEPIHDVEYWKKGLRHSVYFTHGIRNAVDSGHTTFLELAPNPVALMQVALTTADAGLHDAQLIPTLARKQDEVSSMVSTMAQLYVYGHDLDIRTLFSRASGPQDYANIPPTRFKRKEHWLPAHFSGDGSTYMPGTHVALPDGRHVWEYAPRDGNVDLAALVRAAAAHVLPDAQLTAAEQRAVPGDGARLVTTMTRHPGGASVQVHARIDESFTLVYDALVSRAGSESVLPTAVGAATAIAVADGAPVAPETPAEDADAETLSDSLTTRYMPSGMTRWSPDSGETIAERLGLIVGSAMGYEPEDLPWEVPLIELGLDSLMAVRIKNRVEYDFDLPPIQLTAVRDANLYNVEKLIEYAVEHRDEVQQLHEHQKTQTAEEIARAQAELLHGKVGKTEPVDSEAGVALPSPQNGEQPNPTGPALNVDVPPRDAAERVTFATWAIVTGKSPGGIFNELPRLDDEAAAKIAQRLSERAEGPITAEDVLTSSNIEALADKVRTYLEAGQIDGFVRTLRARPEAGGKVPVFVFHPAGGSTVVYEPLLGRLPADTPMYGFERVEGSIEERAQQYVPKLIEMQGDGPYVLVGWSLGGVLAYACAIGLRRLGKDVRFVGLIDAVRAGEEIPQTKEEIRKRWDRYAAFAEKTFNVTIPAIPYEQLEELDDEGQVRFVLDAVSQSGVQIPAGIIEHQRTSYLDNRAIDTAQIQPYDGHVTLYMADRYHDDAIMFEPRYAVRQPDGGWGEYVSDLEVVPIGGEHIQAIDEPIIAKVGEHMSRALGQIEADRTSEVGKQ
UniProt Q8IDJ8, 1-583: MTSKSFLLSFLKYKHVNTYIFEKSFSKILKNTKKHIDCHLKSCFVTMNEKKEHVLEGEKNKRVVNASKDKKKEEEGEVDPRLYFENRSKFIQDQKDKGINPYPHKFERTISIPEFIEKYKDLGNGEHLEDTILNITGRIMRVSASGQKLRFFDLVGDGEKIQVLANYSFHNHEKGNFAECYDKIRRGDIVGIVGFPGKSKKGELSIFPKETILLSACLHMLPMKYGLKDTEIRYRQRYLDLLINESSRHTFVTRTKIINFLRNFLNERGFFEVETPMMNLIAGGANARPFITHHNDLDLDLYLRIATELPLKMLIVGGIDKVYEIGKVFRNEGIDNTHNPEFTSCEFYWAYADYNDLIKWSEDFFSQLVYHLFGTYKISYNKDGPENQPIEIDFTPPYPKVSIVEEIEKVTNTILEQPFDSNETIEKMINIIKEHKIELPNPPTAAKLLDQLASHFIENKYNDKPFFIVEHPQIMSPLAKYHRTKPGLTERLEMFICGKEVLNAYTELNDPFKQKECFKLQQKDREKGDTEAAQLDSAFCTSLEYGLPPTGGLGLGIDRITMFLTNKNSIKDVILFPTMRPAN

Data taken from ChEMBL document CHEMBL3988442, “University of Dundee, Small-Polar-MMV Screening Library” (2021).

Results are given as percent effect. The controls that fix the scale are not given in the record; negative values are as filed. Compounds were drawn at random from those tested, without regard to their results.

ClpP1P2: 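ClpP1P2, Mycobacterium tuberculosis (UniProt P9WPC5 and UniProt P9WPC3). Protease assay of ClpP1P2, read by the AMC dye that it sets free. Concentration: 50 µM. Direction is inferred from only a few compounds that gave an IC50; most scored high, so higher reads as stronger inhibition. Most other retested compounds had strongly negative values. Size under these conditions: about 69,000 compounds, about 10 of them at 50% or above in at least one test.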
MtTrpRS: 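Enzyme assay of tryptophanyl-tRNA synthetase; the read-out is not stated. Target: Tryptophan-tRNA ligase, Mycobacterium tuberculosis (UniProt P9WFT3). Compounds at 10 µM. Direction is not recorded; retested compounds ran higher, which suggests that high means inhibition. About 65,000 compounds were tested under these conditions; 0.098% (about 64) showed 50% or more at least once.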
Pks13 thioesterase: 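Polyketide synthase Pks13, Mycobacterium tuberculosis (UniProt I6X8D2). Enzyme assay of the thioesterase domain of polyketide synthase 13; the read-out is not stated. Compounds at 30 µM. Higher reads as stronger inhibition (inferred from which compounds were picked for retests). About 67,000 compounds were tested under these conditions; 0.46% (about 300) showed 50% or more at least once.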
PfKRS1: 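Lysine-tRNA ligase, Plasmodium falciparum 3D7 (UniProt Q8IDJ8). Enzyme assay of the cytosolic lysyl-tRNA synthetase in 384-well plates, read by luminescence. Compounds at 30 µM. Direction is inferred from only a few compounds that gave an IC50; most scored high, so higher reads as stronger inhibition. About 69,000 compounds were tested under these conditions; 0.071% (about 49) showed 50% or more at least once.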

* Cc1cccc(CN2Cc3nccn3CC(CN3CCOCC3)C2)c1 (stereo unspecified) : ClpP1P2: -0.1743%; MtTrpRS: 4.202%; Pks13 thioesterase: -8.441%; PfKRS1: 2.897%
* CCOCCN1CCN(CCCc2nnnn2-c2ccccc2)CC1 : ClpP1P2: -5.342%; MtTrpRS: -5.61%; Pks13 thioesterase: -45.04%; PfKRS1: -0.39%
* COCCCN1CC2(CCCCN2C(C)=O)CC1=O (stereo unspecified) : ClpP1P2: -0.241%; MtTrpRS: -1.402%; Pks13 thioesterase: -22.55%; PfKRS1: 7.839%
* CCn1nc2c(cc1=O)CN(CC(=O)N(C)c1nccs1)CC2 : ClpP1P2: -0.0476%; MtTrpRS: -0.9709%; Pks13 thioesterase: 0.2553%; PfKRS1: -2.571%
* N#Cc1cnc(N2Cc3cnn(Cc4ccc(F)cc4)c3C2)nc1N : ClpP1P2: 1.071%; MtTrpRS: -3.8%; Pks13 thioesterase: -22.39%; PfKRS1: 6.429%
* COc1cc(N2C[C@@H]3COC[C@]3(COc3ccc(C#N)cn3)C2)ncn1 : ClpP1P2: 0.4175%; MtTrpRS: 1.482%; Pks13 thioesterase: -24.09%; PfKRS1: 4.366%
* O=C(c1ccc[nH]1)N1Cc2nccn2CC(Cn2ncccc2=O)C1 (stereo unspecified) : ClpP1P2: -22.75%; MtTrpRS: 2.039%; Pks13 thioesterase: -18.31%; PfKRS1: -3.373%
* COCCN(C)S(=O)(=O)c1cc(C)cc(F)c1 : ClpP1P2: -5.959%; MtTrpRS: 2.624%; Pks13 thioesterase: -5.91%; PfKRS1: -0.1245%
* Cc1oncc1C(=O)N1CC[C@H]2CO[C@H](CN3CCCC3)[C@H]2C1 : ClpP1P2: -3.895%; MtTrpRS: -4.148%; Pks13 thioesterase: -28.07%; PfKRS1: -0.5248%
* COc1ccccc1C1(CNCc2cccc(C#N)c2)CCOCC1 : ClpP1P2: 2.947%; MtTrpRS: 2.309%; Pks13 thioesterase: -2.831%; PfKRS1: 3.941%
* O=C(c1cc(C2CC2)on1)N1C[C@H]2CC[C@](O)(c3ccc(F)cc3)[C@H]2C1 : ClpP1P2: -13.51%; MtTrpRS: -2.546%; Pks13 thioesterase: -8.329%; PfKRS1: 0.8311%
* Nc1ccc(C(=O)N2C[C@@H]3CC[C@H](C2)N(Cc2ccccc2)C3)cn1 : ClpP1P2: -10.3%; MtTrpRS: 3.357%; Pks13 thioesterase: -6.065%; PfKRS1: -15.39%
* CC(C)(C)c1cn(C2CCN(C(=O)c3cnccn3)CC2)nn1 : ClpP1P2: -9.402%; MtTrpRS: 1.459%; Pks13 thioesterase: 3.042%; PfKRS1: -0.2187%
* Nc1nc2c(c(NC(=O)Nc3ccc(Cl)c(Cl)c3)n1)CCCC2 : ClpP1P2: 15.33%; MtTrpRS: 3.571%; Pks13 thioesterase: -0.7438%; PfKRS1: 0.5998%
* O=C(CCN1C(=O)CCC1=O)Nc1cnn(-c2ccccc2Cl)c1 : ClpP1P2: 7.103%; MtTrpRS: -3.596%; Pks13 thioesterase: -6.742%; PfKRS1: -2.715%
* O=C(Cc1cccs1)N1CCn2cc(Cn3cccn3)nc2C1 : ClpP1P2: -6.372%; MtTrpRS: -0.9382%; Pks13 thioesterase: 0.7444%; PfKRS1: 1.836%
* O=C(NCc1ccccn1)[C@@]12CCO[C@@H]1CCN(Cc1ccccn1)C2 : ClpP1P2: -5.596%; Pks13 thioesterase: -4.203%; PfKRS1: 4.017%
* CNc1cc2c(nn1)CCN(C(=O)c1cccc3c1OCO3)C2 : ClpP1P2: 1.287%; MtTrpRS: -1.998%; Pks13 thioesterase: 7.068%; PfKRS1: -1.055%
* COc1ccc(CN(Cc2nc(C)no2)C2CCCCC2)cc1OC : ClpP1P2: -9.203%; MtTrpRS: -9.644%; Pks13 thioesterase: 8.057%; PfKRS1: 3.588%
* O=C(c1ccc(-n2cnnn2)cc1)N1CCCC(n2ccnc2)C1 (stereo unspecified) : ClpP1P2: -9.741%; MtTrpRS: -5.54%; Pks13 thioesterase: -4.331%; PfKRS1: -0.04766%
* COCCN1C[C@H]2CCN(C(=O)c3cc(C)on3)CC[C@H]2S1(=O)=O : ClpP1P2: 4.514%; MtTrpRS: -3.488%; Pks13 thioesterase: -422.5%; PfKRS1: 4.116%
* CCOCc1ncn2c1CN(S(=O)(=O)c1cccs1)CCC2 : ClpP1P2: -5.16%; MtTrpRS: 6.672%; Pks13 thioesterase: 32.15%; PfKRS1: -0.878%
* O=C1N(Cc2cccc(F)c2F)CCCC1(O)CNC1CCCC1 (stereo unspecified) : ClpP1P2: -20.26%; MtTrpRS: -3.552%; Pks13 thioesterase: -15.11%; PfKRS1: -1.09%
* Fc1ccc(CN2CCC(c3nccnc3-n3ccnc3)CC2)cc1 : ClpP1P2: 3.581%; MtTrpRS: -0.4181%; Pks13 thioesterase: -34.95%; PfKRS1: 3.445%
* O=c1n(CC2CCCO2)nc(CC2CCNCC2)n1-c1ccccc1 (stereo unspecified) : ClpP1P2: 0.2726%; MtTrpRS: 4.164%; Pks13 thioesterase: -12.38%; PfKRS1: 2.456%
* CCN(C(=O)C1CC1)C(c1cccnc1)c1ccc2c(c1)CCO2 (stereo unspecified) : ClpP1P2: -6.855%; MtTrpRS: 0.404%; Pks13 thioesterase: -6.311%; PfKRS1: 2.694%
* COCCC(=O)N1C[C@H]2CCC[C@@]2(COC)C1 : ClpP1P2: -3.047%; Pks13 thioesterase: 7.3%; PfKRS1: 4.241%
* Cc1cc(NC(=O)CN2CCn3c(nnc3C3CC3)C2)n(C)n1 : ClpP1P2: 8.94%; MtTrpRS: 0.3145%; Pks13 thioesterase: -5.646%; PfKRS1: -1.346%

Some entries from above, unchanged:

| SMILES | ClpP1P2 | MtTrpRS | Pks13 thioesterase | PfKRS1 |
|---|---|---|---|---|
| `Cc1cccc(CN2Cc3nccn3CC(CN3CCOCC3)C2)c1` (stereo unspecified) | -0.1743 | 4.202 | -8.441 | 2.897 |
| `Cc1cc(NC(=O)CN2CCn3c(nnc3C3CC3)C2)n(C)n1` | 8.94 | 0.3145 | -5.646 | -1.346 |
| `CC(C)(C)c1cn(C2CCN(C(=O)c3cnccn3)CC2)nn1` | -9.402 | 1.459 | 3.042 | -0.2187 |